Measurements reported in patent US6365154 (GlaxoSmithKline, dated 2002).
Results are given in words; binding and its absence hold for the method and conditions named. Some binding calls cover weakened binding; strength is not graded here.

Chains of the proteins cited; added tags and fusions are not shown. Lines headed by an entry give the natural chain unless they say otherwise; changes in a name come on top. Residues count along the entry.
UniProt Q02763: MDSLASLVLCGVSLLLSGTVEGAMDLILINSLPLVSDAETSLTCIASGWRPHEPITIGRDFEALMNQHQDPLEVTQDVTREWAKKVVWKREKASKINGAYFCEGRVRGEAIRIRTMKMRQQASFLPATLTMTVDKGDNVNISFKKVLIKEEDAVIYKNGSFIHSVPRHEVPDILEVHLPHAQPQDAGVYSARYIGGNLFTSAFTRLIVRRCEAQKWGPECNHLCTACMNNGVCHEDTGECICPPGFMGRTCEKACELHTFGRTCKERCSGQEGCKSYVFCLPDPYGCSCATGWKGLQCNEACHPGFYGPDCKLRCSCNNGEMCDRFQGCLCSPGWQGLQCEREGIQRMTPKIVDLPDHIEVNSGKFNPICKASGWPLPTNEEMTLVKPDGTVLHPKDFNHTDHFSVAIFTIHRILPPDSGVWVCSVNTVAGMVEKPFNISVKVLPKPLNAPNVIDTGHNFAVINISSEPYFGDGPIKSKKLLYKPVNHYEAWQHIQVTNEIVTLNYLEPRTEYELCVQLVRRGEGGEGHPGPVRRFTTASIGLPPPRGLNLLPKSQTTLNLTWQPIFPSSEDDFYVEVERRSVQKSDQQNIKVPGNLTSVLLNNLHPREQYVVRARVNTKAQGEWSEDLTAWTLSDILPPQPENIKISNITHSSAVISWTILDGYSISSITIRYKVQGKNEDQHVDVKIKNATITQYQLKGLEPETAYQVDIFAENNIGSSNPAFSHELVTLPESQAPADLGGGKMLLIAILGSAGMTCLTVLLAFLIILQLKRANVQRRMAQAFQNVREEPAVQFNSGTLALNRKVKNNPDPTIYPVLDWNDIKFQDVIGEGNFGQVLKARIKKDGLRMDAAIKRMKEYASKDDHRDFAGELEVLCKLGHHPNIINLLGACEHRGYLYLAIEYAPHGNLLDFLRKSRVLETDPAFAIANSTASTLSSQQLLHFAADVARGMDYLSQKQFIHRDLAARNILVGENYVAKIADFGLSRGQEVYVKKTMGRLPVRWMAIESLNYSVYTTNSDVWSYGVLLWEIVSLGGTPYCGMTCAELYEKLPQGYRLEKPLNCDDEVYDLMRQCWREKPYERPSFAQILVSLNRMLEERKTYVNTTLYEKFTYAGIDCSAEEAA
recombinant Tie2 extracellular domain-Fc fusion: residues 23-748 of Q02763
soluble monomeric Tie2 receptor: residues 23-745 of Q02763

What was measured:
[1] = biological target: soluble monomeric Tie2 receptor (UniProt Q02763); assay: BIAcore SPR
[2] = biological target: recombinant Tie2 extracellular domain-Fc fusion (UniProt Q02763); assay: BIAcore SPR; mAb captured on rabbit anti-mouse IgG Fc with Tie2-Fc injected, and the reverse format

B1: murine monoclonal antibody 15B8 (antibody, V domains shown)
VH: QVQLQQPGVVLVMPGASVKLSCKASGYTFASYWMHWVKQRPGQGLEWIGEIDPSDSYRNYNQKFKGKATLTVDKSSSTVNMQLSSLTSEDSAVYYCAKTSGIGRAMDYWGQGTSVTVSS
VL: DIQMIQSPASLSASVGETVTITCRASENIYSFVTWYQQKQGKSPQLLVFNAKNLVEGVPSSFSGSGSGTQFSLKIDSLQPEDFGTYYCQHHYSIPYTFGGGTKLEMR
notes: Constant regions are mouse IgG heavy and kappa light, going by the PCR primers; also called mAb 15B8; mAb 1 B 8
In the case of B1, the binding [1] is reported as “binds” and the binding [2] is reported as “binds”.

B2: murine monoclonal antibody 13H10 (antibody, V domains shown)
VH: QIQLVQSGPELKKPGETVKISCKASGYTFTDFSIHWVKQAPGKGLKWMGWINTETGETTYAEDFKGRFAFSLETSASTAYLQINNLKNEDTATYFCSRRYDYDTWFAYWGQGTLVTVS
VL: DIVMTQAALSVPVTPGESVSISCRSSSSLLHRNGNTYLYWFLQRPGQSPQLLIYRMSNLASGVPDRFSGSGSGTAFTLRISRVEAEDVGVYYCMQRLEYPFTFGGGTKLEIKR
notes: Constant regions are mouse IgG heavy and kappa light, going by the PCR primers; also called mAb 13H10; mAb 13H 10
With B2 the binding [1] was “binds” and the binding [2] was “binds”.
